Record: PubChem BioAssay AID743454 (Peter MacCallum Cancer Centre, 2014)
Screen: 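Knock-downs lowering viability or raising caspase 3/7 activity in vorinostat-treated resistant cells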 (primary screen). System: human HCT116-VR colon cancer cells, selected for vorinostat resistance. Knock-down reagent: siRNA pool against human genes, 40 nM siRNA pool. Duration: vorinostat for 24 h, read-out about 72 h after transfection. Treatment: vorinostat at 2.5 µM final. Detection: 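Cell viability by CellTiter-Fluor and caspase 3/7 activity by luminescence, each scaled to mock wells per plate, duplicates averaged, then robust z-scored over all plates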. Direction: viability robust z-score: higher = more viable cells than screen typical; caspase robust z-score: higher = more caspase 3/7 activity than screen typical. Hit rule: 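a knock-down is a hit when classed RV1 or RV2 for lowered viability, or CA1 or CA2 for caspase activation; those lethal without drug were dropped; hits were retested singly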.
The whole screen tested about 18,000 reagents; shown is a random part of them. In the full data, 450 (2.5%) got an active call. 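Single biological run; no consistent viability z cut-off exists, so the class columns, not z-scores, define the calls.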

| gene | viability hit class | caspase hit class | viability robust z-score | caspase robust z-score | activity call |
| --- | --- | --- | --- | --- | --- |
| UTP14A (UTP14A small subunit processome component) | no change | no change | -2.24 | 0.18 | inactive |
| IL17RC (interleukin 17 receptor C) | no change | no change | 1.12 | 2.15 | inactive |
| GPR87 (G protein-coupled receptor 87) | no change | no change | 0.24 | 1.62 | inactive |
| PTH2R (parathyroid hormone 2 receptor) | no change | no change | -0.24 | -0.01 | inactive |
| ZNF664 (zinc finger protein 664) | no change | no change | 0.66 | 0.1 | inactive |
| FLNC (filamin C) | no change | no change | 0.34 | -0.2 | inactive |
| EPOR (erythropoietin receptor) | no change | no change | 0.6 | 0.57 | inactive |
| SNRPG (small nuclear ribonucleoprotein polypeptide G) | no change | no change | -3.72 | -1.42 | inactive |
| SLCO6A1 | no change | no change | -0.59 | -0.32 | inactive |
| SVEP1 | no change | no change | -1.1 | -0.05 | inactive |
| KIF5C (kinesin family member 5C) | no change | no change | 0.12 | -0.32 | inactive |
| HPF1 (histone PARylation factor 1) | no change | no change | -0.71 | 4.23 | inactive |
| LAMB2 (laminin subunit beta 2) | no change | no change | -1.88 | -0.4 | inactive |
| MGST1 (microsomal glutathione S-transferase 1) | no change | no change | -0.18 | 1.17 | inactive |
| GCA (grancalcin) | no change | no change | -0.84 | -0.52 | inactive |
| EMC8 (ER membrane protein complex subunit 8) | no change | no change | 0.28 | 0.28 | inactive |
| ATP6V0E2 (ATPase H+ transporting V0 subunit e2) | no change | no change | -0.43 | 3 | inactive |
| CD63 (CD63 molecule) | no change | no change | 1.25 | 1.65 | inactive |
| LRRC8B (leucine rich repeat containing 8 VRAC subunit B) | no change | no change | -0.77 | 1.12 | inactive |
| F11 (coagulation factor XI) | no change | no change | 0.43 | 1.02 | inactive |
| INPP4B (inositol polyphosphate-4-phosphatase type II B) | no change | no change | -1.19 | 2.4 | inactive |
| GABRR1 (gamma-aminobutyric acid type A receptor subunit rho1) | no change | no change | 0.63 | 0 | inactive |
| ARID3A (AT-rich interaction domain 3A) | no change | no change | 0.04 | 0.78 | inactive |
| ZNF687 (zinc finger protein 687) | no change | no change | -0.01 | 0.17 | inactive |
| PAGR1 (PAXIP1 associated glutamate rich protein 1) | no change | no change | 1.68 | 2.29 | inactive |
| POLN (DNA polymerase nu) | no change | no change | 0.12 | -0.92 | inactive |
| FSIP1 (fibrous sheath interacting protein 1) | no change | no change | 1.12 | -0.29 | inactive |

Reprinted from the listing (3 entries):
| gene | viability hit class | caspase hit class | viability robust z-score | caspase robust z-score | activity call |
| --- | --- | --- | --- | --- | --- |
| KIF5C (kinesin family member 5C) | no change | no change | 0.12 | -0.32 | inactive |
| HPF1 (histone PARylation factor 1) | no change | no change | -0.71 | 4.23 | inactive |
| LAMB2 (laminin subunit beta 2) | no change | no change | -1.88 | -0.4 | inactive |

The list goes on:
| gene | viability hit class | caspase hit class | viability robust z-score | caspase robust z-score | activity call |
| --- | --- | --- | --- | --- | --- |
| DOLK (dolichol kinase) | no change | no change | 0.4 | -0.65 | inactive |
| CD244 (CD244 molecule) | no change | no change | 0.48 | 0.67 | inactive |
| INTS1 (integrator complex subunit 1) | no change | no change | -1.14 | 2.5 | inactive |
| TSPY1 (testis specific protein Y-linked 1) | no change | no change | 1.72 | -0.4 | inactive |
| BLZF1 (basic leucine zipper nuclear factor 1) | no change | no change | 0.99 | -0.68 | inactive |
| BAIAP3 (BAI1 associated protein 3) | no change | no change | -0.46 | 1.5 | inactive |
| FBXL14 (F-box and leucine rich repeat protein 14) | no change | no change | 0.46 | 0.18 | inactive |
| NDUFC1 (NADH:ubiquinone oxidoreductase subunit C1) | no change | no change | 0.62 | -0.92 | inactive |
| TIGD3 (tigger transposable element derived 3) | no change | no change | -1.35 | 0.7 | inactive |
| BMP4 (bone morphogenetic protein 4) | no change | no change | 0.26 | -0.16 | inactive |
| IL17RA (interleukin 17 receptor A) | no change | no change | -0.7 | 0.84 | inactive |
| TET2 (tet methylcytosine dioxygenase 2) | no change | no change | 1.21 | 0.4 | inactive |
| XRCC5 (X-ray repair cross complementing 5) | no change | no change | 0.2 | -0.54 | inactive |
| OAS2 (2'-5'-oligoadenylate synthetase 2) | no change | no change | 0.84 | -0.79 | inactive |
| COL27A1 (collagen type XXVII alpha 1 chain) | no change | no change | 0.51 | -0.62 | inactive |
| RAG2 (recombination activating 2) | no change | no change | 0.22 | -0.31 | inactive |
| MED26 (mediator complex subunit 26) | RV2 (reduced viability) | CA2 (caspase activation) | -3.46 | 6.13 | active |
| TGFBI (transforming growth factor beta induced) | no change | no change | 1.26 | 3.15 | inactive |
| RUVBL1 (RuvB like AAA ATPase 1) | no change | no change | -2.75 | 0.82 | inactive |
| ZNF548 (zinc finger protein 548) | no change | no change | 1.26 | 4.53 | inactive |
| PMPCA (peptidase, mitochondrial processing subunit alpha) | no change | no change | 0.33 | -0.77 | inactive |
| TOX4 (TOX high mobility group box family member 4) | no change | CA1 (caspase activation) | 0.34 | 7.19 | active |
| ARID2 (AT-rich interaction domain 2) | no change | no change | 1.44 | -0.32 | inactive |
| TMEM51 (transmembrane protein 51) | no change | no change | -2.72 | 5.1 | inactive |
| FAM170A (family with sequence similarity 170 member A) | no change | no change | -0.88 | 2.97 | inactive |
| ZNF699 (zinc finger protein 699) | no change | no change | -1.7 | 4.14 | inactive |
| KLHL5 (kelch like family member 5) | no change | no change | -0.22 | -0.6 | inactive |
| LYG1 (lysozyme g1) | no change | no change | 0.16 | 2 | inactive |
| VASH1 (vasohibin 1) | no change | no change | -0.16 | -0.7 | inactive |
| CST11 (cystatin 11) | no change | no change | -0.26 | -0.28 | inactive |
